{
  "source": "PubChem BioAssay AID540276",
  "about": "(National Center for Advancing Translational Sciences (NCATS), 2011)",
  "note": "In all, about 300,000 compounds went through this assay and about 5,400 (1.8%) were called active. The shares of active, inactive and inconclusive entries below differ from those in the screen. Calls follow the shape of the full dose curve; tested in HEK293 cells. A potency beside an inconclusive call is a rough fit, not a confirmed value. Potency is read from the fitted curve at half-maximal effect.",
  "data": [
    {"assay": "qHTS for inhibitors of binding or entry into cells for Marburg Virus", "conditions": "Marburg virus pseudotyped entry inhibition, cell reporter; series mostly up to 37.8 µM", "values": [
      {"smiles": "COc1ccc(C(=O)/C=C/c2ccccc2OC)c(OC(=O)c2ccc([N+](=O)[O-])cc2)c1", "Potency": "inconclusive: 7.08 µM [activator, partial curve, poor fit]"},
      {"smiles": "CCOCc1c(C(=O)NC2=Nc3ccccc3NC(CC)=C2C(=O)OCC)oc2ccccc12", "Potency": "inconclusive: 10 µM [inhibitor, partial curve]"},
      {"smiles": "Cc1cc(C(=O)N(C)C)sc1-c1ccccc1", "Potency": "inconclusive: 3.16 µM [activator, single point]"},
      {"smiles": "Cc1ccc(-c2nc(CS(=O)CC(=O)N3CCN(c4ccc(F)cc4)CC3)c(C)o2)cc1", "note": "(stereo unspecified)", "Potency": "inconclusive: 12.6 µM [inhibitor, single point]"},
      {"smiles": "OCc1cccc(Nc2ncnc3sc4c(c23)CCCCC4)c1", "Potency": "inconclusive: 35.5 µM [inhibitor, single point]"},
      {"smiles": "O=C(NC1CCCCC1)c1cc(-c2ccc(F)cc2)on1", "Potency": "inactive"},
      {"smiles": "O=C(Cn1cc(C(=O)c2ccccc2)c2ccccc21)NCc1ccco1", "Potency": "inactive"},
      {"smiles": "COc1ccc(Nc2nc(-c3ccccc3)cs2)cc1", "Potency": "inconclusive: 16.4 µM [inhibitor, single point]"},
      {"smiles": "CCCCN(C)C(=O)c1ccc2c(c1)N(Cc1ccc(F)cc1)C(=O)c1ccccc1S2(=O)=O", "Potency": "inconclusive: 5.62 µM [activator, single point]"},
      {"smiles": "COCc1nc(-c2cc(OC)c(OC)c(OC)c2)no1", "Potency": "inactive"},
      {"smiles": "Cc1ccc(N2C(=O)C3CC(c4ccccc4)=C4C5C=CC(C6C(=O)N(c7ccc(C)cc7C)C(=O)C56)C4C3C2=O)c(C)c1", "note": "(stereo unspecified)", "Potency": "inconclusive: 1.83 µM [inhibitor, full curve, poor fit]"},
      {"smiles": "COc1cccc(Nc2c([N+](=O)[O-])cncc2[N+](=O)[O-])c1", "Potency": "inconclusive: 15.8 µM [inhibitor, partial curve, poor fit]"},
      {"smiles": "O=C(Nc1ccc(Cl)cn1)c1cccc(F)c1", "Potency": "inconclusive: 7.94 µM [inhibitor, partial curve, poor fit]"},
      {"smiles": "CC(C)C(=O)NC(c1cccc([N+](=O)[O-])c1)c1ccc2cccnc2c1O", "note": "(stereo unspecified)", "Potency": "inconclusive: 3.55 µM [inhibitor, partial curve, poor fit]"},
      {"smiles": "Cc1cc(Cl)ccc1OC(C)C(=O)NC(C)C1CCCO1", "note": "(stereo unspecified)", "Potency": "inconclusive: 5.62 µM [inhibitor, single point]"},
      {"smiles": "CCOC(=O)c1ccccc1NC(=O)/C=C/c1cc(OC)c(OC)c(OC)c1", "Potency": "inconclusive: 15.8 µM [inhibitor, single point]"},
      {"smiles": "COc1cc2[nH]c(C(=O)N3CCC(Cc4ccccc4)CC3)cc2c(OC)c1OC", "Potency": "inactive"},
      {"smiles": "CCOC(=O)N1CCC(N(CCN(C)C)C(=S)Nc2ccc(F)c(Cl)c2)CC1", "Potency": "inactive"},
      {"smiles": "S=C(Nc1cccc(Br)c1)c1ccccc1", "Potency": "inactive"},
      {"smiles": "O=C(NNC(=O)c1ccccn1)c1ccc(OC(F)F)cc1", "Potency": "inconclusive: 12.6 µM [inhibitor, partial curve, poor fit]"},
      {"smiles": "Cc1ccc(C(=O)CSc2nnc(-c3c[nH]c4ccccc34)o2)cc1", "Potency": "inconclusive: 0.651 µM [activator, single point]"},
      {"smiles": "CN(C)CCNC(=O)c1cc2cc(Br)ccc2oc1=O", "Potency": "inactive"},
      {"smiles": "Cc1ccc(S(=O)(=O)N2CCCOC2CNC(=O)C(=O)NCCc2c[nH]c3ccccc23)cc1", "note": "(stereo unspecified)", "Potency": "inconclusive: 35.5 µM [inhibitor, single point]"},
      {"smiles": "COC(=O)Cc1c(C(=O)OC)nnn1-c1cccc(C(F)(F)F)c1", "Potency": "inactive"},
      {"smiles": "N/C(=N\\OC(=O)c1ccc(Cl)cc1)c1ccccn1", "Potency": "inconclusive: 7.3 µM [inhibitor, partial curve, poor fit]"},
      {"smiles": "Cc1cc(C)cc(OCc2cc(=O)n3c4c(sc3n2)CCCC4)c1", "Potency": "inactive"},
      {"smiles": "CCn1c2ccccc2c2cc(NC(=O)CSc3nnc(C4CC4)n3Cc3ccco3)ccc21", "Potency": "inconclusive: 11.2 µM [inhibitor, partial curve, poor fit]"},
      {"smiles": "CCN(CC)C(=O)c1sc(N)c(C(=O)OC(C)C)c1C", "Potency": "inactive"},
      {"smiles": "COc1cc(C2C(C#N)=C(N)N(c3sc4c(c3C#N)CCCC4)C3=C2C(=O)CC(C)(C)C3)cc(OC)c1OC", "note": "(stereo unspecified)", "Potency": "inconclusive: 16.4 µM [inhibitor, partial curve]"},
      {"smiles": "COc1ccccc1-c1ccc(SCc2ccccc2)nn1", "Potency": "inconclusive: 7.08 µM [inhibitor, single point]"},
      {"smiles": "Cc1ccc(NC(=O)Cn2c(O)c(N=NS(=O)(=O)c3ccc(C)cc3)c3ccccc32)cc1", "Potency": "inconclusive: 2.24 µM [inhibitor, single point]"},
      {"smiles": "COC[C@H]1O[C@H](c2ccccc2)C=C[C@H]1OCC=C(C)C", "Potency": "inconclusive: 1.5 µM [activator, partial curve, poor fit]"},
      {"smiles": "CCCCC(=O)Nc1c(C(=O)N2CCN(c3ccccc3)CC2)oc2ccccc12", "Potency": "inconclusive: 31.6 µM [inhibitor, single point]"},
      {"smiles": "O=c1c2c3c(sc2nc2n1CCCC2)CCCC3", "Potency": "inconclusive: 3.16 µM [activator, single point]"},
      {"smiles": "CCOCCCNC(=O)c1cc(=O)[nH]c2ccc(S(=O)(=O)N3CCCC3)cc12", "Potency": "inconclusive: 3.98 µM [activator, single point]"},
      {"smiles": "O=C(C[n+]1ccccc1)Nc1nc2ccccc2s1", "Potency": "inactive"},
      {"smiles": "Cc1csc(NC(=O)c2ccc3nc[nH]c3c2)n1", "Potency": "inconclusive: 1 µM [activator, full curve, poor fit]"},
      {"smiles": "COCCCN=C1NN=C(c2cc(C)n(-c3ccccc3)c2C)CS1", "Potency": "inactive"},
      {"smiles": "CCCCCn1c(=O)[nH]c2cc(C(=O)N3CCN(c4cccc(OC)c4)CC3)ccc2c1=O", "Potency": "inconclusive: 14.1 µM [activator, single point]"},
      {"smiles": "O=C1CC(c2ccc(Cl)cc2)c2cc3c(cc2N1)OCCO3", "note": "(stereo unspecified)", "Potency": "inconclusive: 35.5 µM [inhibitor, single point]"},
      {"smiles": "COC(=O)c1c(C)oc(C)c(C(=O)OC)c1=O", "Potency": "inconclusive: 6.31 µM [activator, single point]"},
      {"smiles": "N#Cc1nc(-c2ccc(OCc3ccccc3)cc2)oc1N1CCOCC1", "Potency": "inconclusive: 1.16 µM [inhibitor, full curve, poor fit]"},
      {"smiles": "CSc1ccccc1NC(=O)c1cc(-c2cccs2)on1", "Potency": "inconclusive: 6.51 µM [activator, single point]"},
      {"smiles": "CC1CN(C(=O)COC(=O)c2cccs2)CC(C)O1", "note": "(stereo unspecified)", "Potency": "inconclusive: 17.8 µM [activator, single point]"},
      {"smiles": "CCc1cccc(C)c1NC(=O)C1CCN(S(=O)(=O)c2cccc3nonc23)CC1", "Potency": "inconclusive: 0.708 µM [inhibitor, full curve, poor fit]"},
      {"smiles": "O=C(COc1ccc2oc(-c3ccccc3)cc(=O)c2c1)NCc1ccco1", "Potency": "inconclusive: 0.794 µM [activator, partial curve, poor fit]"},
      {"smiles": "O=C(Nc1cccc2nsnc12)c1cccnc1", "Potency": "inconclusive: 3.16 µM [activator, single point]"},
      {"smiles": "COC(=O)c1ccc(-c2sc3nc(N4CCOCC4)c4c(c3c2N)CCCC4)o1", "Potency": "inconclusive: 35.5 µM [inhibitor, single point]"},
      {"smiles": "COc1ccc(C(=O)Nc2c(C(=O)c3ccc(F)cc3)oc3ccccc23)cc1", "Potency": "inconclusive: 5.62 µM [activator, single point]"},
      {"smiles": "Cc1cccc(Sc2ccc([N+](=O)[O-])cc2[N+](=O)[O-])n1", "Potency": "inactive"},
      {"smiles": "O=C1CN(C(=O)CSc2nc3ccccc3n2CCc2ccccc2)c2ccccc2N1", "Potency": "inconclusive: 1.12 µM [activator, partial curve, poor fit]"},
      {"smiles": "Cc1c(-c2ncn[nH]2)sc(C#N)c1-c1ccccc1", "Potency": "inconclusive: 35.5 µM [inhibitor, partial curve, poor fit]"},
      {"smiles": "O=C(COC(=O)c1cc(=O)c2ccccc2o1)Nc1cc(Cl)ccc1Cl", "Potency": "inactive"},
      {"smiles": "CN1C(c2ccc(F)cc2)=CS/C1=C(/C#N)c1nnc2n1-c1ccccc1SC2", "Potency": "inconclusive: 35.5 µM [inhibitor, partial curve, poor fit]"},
      {"smiles": "Cc1ccccc1Nc1nc(N)nc(COC(=O)c2ccc(S(=O)(=O)N(C)C)cc2)n1", "Potency": "inactive"},
      {"smiles": "COc1ccc(NC(=O)CCN2CCN(S(=O)(=O)c3cc(Cl)ccc3OC)CC2)cc1", "Potency": "inactive"},
      {"smiles": "CCOC(=O)C1CCCN(C(=O)c2cc3nc(-c4cccc(OC)c4)cc(C(F)(F)F)n3n2)C1", "note": "(stereo unspecified)", "Potency": "inconclusive: 29.1 µM [inhibitor, single point]"},
      {"smiles": "CCCCN(Cc1ccccc1)S(=O)(=O)c1cc(Br)cc2c1N(C(C)=O)CC2", "Potency": "inconclusive: 17.8 µM [activator, single point]"},
      {"smiles": "COc1ccc(C(=O)COc2ccc(F)cc2)c(O)c1", "Potency": "inactive"},
      {"smiles": "NC(=O)COc1ccc(NC(=O)OCc2ccccc2)cc1", "Potency": "inactive"},
      {"smiles": "O=C(Cc1ccccc1)Nc1nnc(-c2ccco2)s1", "Potency": "inconclusive: 35.5 µM [activator, single point]"},
      {"smiles": "O=C(Cn1cc(S(=O)(=O)Cc2ccccc2F)c2ccccc21)N1CCOCC1", "Potency": "inconclusive: 35.5 µM [activator, partial curve, poor fit]"},
      {"smiles": "Cc1ccnc(NC(=O)CCC(=O)N(CC(=O)NC(C)(C)C)c2ccc3c(c2)OCCO3)c1", "Potency": "inconclusive: 14.1 µM [inhibitor, single point]"},
      {"smiles": "CCOC(=O)CCCN1C(=O)CCn2nc(-c3cn(C)c4ccccc34)cc21", "Potency": "inconclusive: 35.5 µM [inhibitor, single point]"},
      {"smiles": "COc1ccc2c(c1OC)C(=O)N1C2SC[C@H]1C(=O)NC1CC(C)(C)NC(C)(C)C1", "note": "(stereo partly specified)", "Potency": "inconclusive: 14.1 µM [inhibitor, single point]"},
      {"smiles": "OCC1(Cc2ccc(F)cc2)CCCN(Cc2ccc(F)cc2Cl)C1", "note": "(stereo unspecified)", "Potency": "inconclusive: 35.5 µM [inhibitor, single point]"}
    ]}
  ]
}
